Data reported in patent US20140289906A1, “Compositions Having Dicamba Decarboxylase Activity and Methods of Use” (priority 2013, published 2014).
Some results were stated once for a whole list of compounds, not compound by compound.

Assay: Saturation mutagenesis of SEQ ID NO:109: dicamba decarboxylation activity of point mutants (Table 7)
Conditions: point mutations of SEQ ID NO:109

B1: N302A: point mutation of SEQ ID NO:109 (protein)
chain: MAQGKVALEEHFAIPETLQDSAGFVPGDYWKELQHRLLDIQDTRLKLMDAHGIETMILSLNAPAVQAIPDRRKAIEIARRANDVLAEECAKRPDRFLAFAALPLQDPDAATEELQRCVNDLGFVGALVNGFSQEGDGQTPLYYDLPQYRPFWGEVEKLDVPFYLHPRNPLPQDSRIYDGHPWLLGPTWAFAQETAVHALRLMASGLFDEHPRLNIILGHMGEGLPYMMWRIDHRVAWVKLPPRYPAKRRFMDYFNENFHITTSGNFRTQTLIDAILEIGADRILFSTDWPFENIDHASDWFAATSIAEADRVKIGRTNARRLFKLDGA
modifications: Dicamba decarboxylase variant clone DC.4.032
  dicamba decarboxylation activity compared to SEQ ID NO:109: greater than 1.8 fold
